From patent US12404332B2, “Methods for diagnosing and treating cancers” (Research Development Foundation, priority 2020, dated 2025)
For part of these data: At least one structure is not confirmed: it was looked up by name or label, or the drawing left a doubt. Some of these results come from one statement about several compounds together.

Tests used:
Chk2 = Chk2 protein content by immunoblot in B16-F10 cells; type: cell-based, mouse
[1] = test system: RT4 human bladder cancer cells; experiment: In vitro viability (MTT) of CTRL versus PD-L1^KO RT4 cells; type: cell-based; conditions: PD-L1^KO significantly greater than control RT4
Description: Cells (1×10^3) were plated in 96 well plastic culture plates in respective medium and treated for 5 days with DDRi or 3 days with gemcitabine at indicated concentrations. Drug concentrations were carefully optimized in preliminary work not shown. Cell viability was by MTT (3-(4,5-dimethylthiazol-2-yl)-2,5-diphenyl tetrazolium bromide) at 5 mg/ml. Absorbance was measured at 540 nm. Results are presented as a mean+/−SEM of ≥6 replicates. Total cells and viability were confirmed using a Vi-Cell-XR (Beckman Coulter).

PD-L1 = experiment: Tumor cell PD-L1 depletion by drugs (flow cytometry, immunoblot); type: cell-based; conditions: over 2-3 days, depending on the cell type, variety of human and mouse tumor lines
Description: High throughput Screening: B16 PD-L1 RFP cells were treated with 2.5 and 10 μM compounds from the Prestwick and LOPAC Libraries for 48 hours using the Agilent Bravo liquid pipetting platform. Then, cells were washed with PBS, and fixed with 4% paraformaldehyde (Electron Microscopy Sciences, Hatsfield, PA, Cat 15714S) and labeled with 2 μg/ml DAPI, (Molecular Probes, Cat D1306) and 1 μg/ml Cell Mask-Blue (Invitrogen, Cat. H32720). Plates were then imaged using the Operetta High Content Imaging System, Perkin Elmer, Waltham (DAPI and Cell Mask Blue, Ex 360-400, Em 410-480), and the RFP channels (Ex 520-550, Em 560-630) channels. […]
Flow cytometry: Mice were sacrificed by cervical dislocation after induction of deep isoflurane anesthesia. ID8agg tumors were collected and cells were stained as described (Derup et al., 2020) using LSR II hardware and analyzed by FACS Diva (BD Bioscience) or Flow Jo software (Flow Jo, LLC). […]
Western blotting and immunoprecipitation: To prepare whole cell lysates, cells were harvested and lysed in RIPA (radioimmunoprecipitation assay) buffer plus 1 mM phenylmethylsulphonyl fluoride and Halt protease/phosphatase inhibitor cocktail (Thermo Scientific) at 4° C. Protein concentrations were measured by BCA Protein Assay Kit (Thermo Scientific). […] Specific antibody binding was detected by chemiluminescence using Western Lightening Plus regent (Perkin Elmer). […]

SMILES: CO[C@H]1C[C@@H]2CC[C@@H](C)[C@@](O)(O2)C(=O)C(=O)N2CCCC[C@H]2C(=O)O[C@H]([C@H](C)C[C@@H]2CC[C@@H](O)[C@H](OC)C2)CC(=O)[C@H](C)/C=C(\C)[C@@H](O)[C@@H](OC)C(=O)[C@H](C)C[C@H](C)/C=C/C=C/C=C/1C [rapamycin]
- affected Chk2 protein content (Chk2): Neither

SMILES: CC(=O)c1c(C)c2cnc(Nc3ccc(N4CCNCC4)cn3)nc2n(C2CCCC2)c1=O [Palbociclib]
- reversal of Chk1i sensitivity [1]: partially reversed Chk1i sensitivity

SMILES: Nc1nc2c(ncn2CCOCP(=O)(O)O)c(=O)[nH]1 [PMEG, 9-(2-phosphonylmethoxyethyl) guanine]
- reduced surface tumor PD-L1 (PD-L1): 30-70%
